In publication PMC4924869:
Results are given in words; binding and its absence hold for the method and conditions named. In cells and extracts the contact can be indirect. A result given as binding can be weak or reduced; the word gives no strength.

Sequences of proteins named here, by UniProt entry; tags and fusion partners are left off. A change or cut given only in a name is not applied to a line headed by its entry.
UniProt Q61169: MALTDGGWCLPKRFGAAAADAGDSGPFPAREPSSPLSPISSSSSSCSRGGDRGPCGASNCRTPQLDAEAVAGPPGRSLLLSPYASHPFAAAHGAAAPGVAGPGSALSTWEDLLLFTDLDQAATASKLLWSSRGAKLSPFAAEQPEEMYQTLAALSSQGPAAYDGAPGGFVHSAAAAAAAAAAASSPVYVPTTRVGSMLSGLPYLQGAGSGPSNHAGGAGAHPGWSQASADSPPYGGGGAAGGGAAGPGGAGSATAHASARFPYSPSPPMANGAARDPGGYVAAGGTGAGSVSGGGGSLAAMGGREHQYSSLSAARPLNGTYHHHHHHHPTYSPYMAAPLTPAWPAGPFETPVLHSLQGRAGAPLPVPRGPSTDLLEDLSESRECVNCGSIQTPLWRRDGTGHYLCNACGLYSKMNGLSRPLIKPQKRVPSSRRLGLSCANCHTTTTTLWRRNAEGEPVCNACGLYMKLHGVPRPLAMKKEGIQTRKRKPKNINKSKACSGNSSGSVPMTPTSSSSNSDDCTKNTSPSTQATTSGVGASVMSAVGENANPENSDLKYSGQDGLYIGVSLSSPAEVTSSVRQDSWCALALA
UniProt Q61602: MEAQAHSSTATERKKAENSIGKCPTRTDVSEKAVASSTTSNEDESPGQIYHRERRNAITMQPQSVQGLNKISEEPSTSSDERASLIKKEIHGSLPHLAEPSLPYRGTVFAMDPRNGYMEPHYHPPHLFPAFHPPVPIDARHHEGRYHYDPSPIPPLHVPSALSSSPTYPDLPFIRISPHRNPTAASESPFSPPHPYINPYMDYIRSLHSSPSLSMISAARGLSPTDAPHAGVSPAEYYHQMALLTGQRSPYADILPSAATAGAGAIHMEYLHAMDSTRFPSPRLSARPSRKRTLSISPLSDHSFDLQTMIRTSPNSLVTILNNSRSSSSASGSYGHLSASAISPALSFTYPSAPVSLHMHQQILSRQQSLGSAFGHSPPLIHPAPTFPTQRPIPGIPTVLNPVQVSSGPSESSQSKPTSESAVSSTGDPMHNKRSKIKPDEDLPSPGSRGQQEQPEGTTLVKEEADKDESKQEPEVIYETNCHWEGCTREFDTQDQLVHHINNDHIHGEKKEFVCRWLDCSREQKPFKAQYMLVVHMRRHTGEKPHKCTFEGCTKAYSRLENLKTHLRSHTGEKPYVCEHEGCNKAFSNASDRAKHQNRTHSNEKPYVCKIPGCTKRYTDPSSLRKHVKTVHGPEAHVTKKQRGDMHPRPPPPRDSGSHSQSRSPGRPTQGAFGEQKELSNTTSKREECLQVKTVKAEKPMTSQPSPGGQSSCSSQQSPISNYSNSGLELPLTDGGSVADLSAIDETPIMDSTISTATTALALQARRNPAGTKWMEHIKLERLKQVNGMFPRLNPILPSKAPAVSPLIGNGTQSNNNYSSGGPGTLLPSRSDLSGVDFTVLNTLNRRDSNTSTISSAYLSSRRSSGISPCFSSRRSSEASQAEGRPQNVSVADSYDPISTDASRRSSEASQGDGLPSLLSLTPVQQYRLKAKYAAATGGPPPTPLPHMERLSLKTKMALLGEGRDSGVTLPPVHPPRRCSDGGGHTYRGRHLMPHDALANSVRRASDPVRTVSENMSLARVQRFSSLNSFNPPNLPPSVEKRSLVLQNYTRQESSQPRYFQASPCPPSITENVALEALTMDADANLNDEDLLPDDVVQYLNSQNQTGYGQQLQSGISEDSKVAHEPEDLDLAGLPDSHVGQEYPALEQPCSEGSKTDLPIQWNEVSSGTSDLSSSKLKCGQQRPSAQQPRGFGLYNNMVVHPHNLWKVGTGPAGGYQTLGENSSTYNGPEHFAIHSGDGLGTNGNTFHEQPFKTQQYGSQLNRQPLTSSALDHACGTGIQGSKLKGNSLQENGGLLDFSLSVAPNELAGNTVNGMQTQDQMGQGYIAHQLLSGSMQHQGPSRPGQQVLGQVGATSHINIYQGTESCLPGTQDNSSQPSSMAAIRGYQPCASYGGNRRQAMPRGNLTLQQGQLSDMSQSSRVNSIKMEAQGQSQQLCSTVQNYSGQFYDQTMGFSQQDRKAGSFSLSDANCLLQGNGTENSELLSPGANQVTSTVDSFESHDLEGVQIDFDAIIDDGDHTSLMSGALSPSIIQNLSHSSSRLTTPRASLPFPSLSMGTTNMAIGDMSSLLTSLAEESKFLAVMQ

Biological target: GATA6, endogenous in mouse hindlimb buds (mouse (endogenous in hindlimb buds)) (UniProt Q61169)
Experiment: co-IP; lysate of pooled wild-type mouse hindlimb buds, E10.25-10.5; anti-GATA6 (Cell Signaling #5851) and Dynabeads protein G; Western with anti-GLI3 (R&D Systems AF3690)

**Q.** For “GLI3R, endogenous in mouse hindlimb buds (from UniProt Q61602)”, which binding is on record?
**A.** binds
